{"source": "PubChem BioAssay AID1487", "about": "(National Center for Advancing Translational Sciences (NCATS), 2009)", "note": "Among all 200,000 compounds or so, about 25 (0.01%) were called active. The shares of active, inactive and inconclusive entries below differ from those in the screen. Calls come from the whole dose curve; as a rule, active = well fitted inhibition curve with a large enough effect in the signal ratio, with a control signal flat (not every such curve was filed as active); inconclusive = small, poorly fitted or top-dose-only effect, or effect the other way, or a change in a side signal; inactive = flat fitted curve, though single readings scatter; the % refers to the signal ratio. A potency beside an inconclusive call is a rough fit, not a confirmed value. % is set by controls: 0 for no effect and ±100 for the full control effect; potency is the fitted concentration of half-maximal effect.", "data": [{"experiment": "qHTS Assay for Modulators of Lamin A Splicing", "conditions": "HeLa LMNA splicing GFP/RFP minigene ratio, 48 h; ratio change, negative = inhibition: at 46.1 µM (top of the series) unless noted", "summary_of_the_method": "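S3 HeLa cells stably expressing lamin A-EGFP splicing minigene plus DsRed2, 600 cells/well, 48 h compound exposure at 37C. Laser-scanning cytometry; analysed as GFP (500-530 nm)/RFP (575-640 nm) total intensity ratio; 0.5% DMSO vehicle.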", "values": [{"smiles": "Cc1ccc(NC(=O)c2oc3ccc(S(=O)(=O)N4CCCCCC4)cc3c2C)c(C)c1", "ratio change, negative = inhibition": "inactive"}, {"smiles": "Cc1ccc(S(=O)(=O)CC(=O)Nc2c(C)n(C)n(-c3ccccc3)c2=O)cc1", "ratio change, negative = inhibition": "inactive"}, {"smiles": "O=C(NCc1ccccc1Br)c1ccc2c(c1)nc1n2CCOC1", "Potency": "inconclusive: 10 µM [inhibitor, partial curve]"}, {"smiles": "CN1/C(=C\\C(=O)c2cccs2)Sc2ccccc21", "ratio change, negative = inhibition": "inactive"}, {"smiles": "Cc1c(C#N)c(N)nc2c3c(sc12)NC(=O)CC3c1ccccc1", "note": "(stereo not drawn)", "ratio change, negative = inhibition": "inconclusive: 16.6%"}, {"smiles": "CCC(=O)N1c2ccc(S(=O)(=O)CCC(=O)Nc3nccs3)cc2CC1C", "note": "(stereo not drawn)", "ratio change, negative = inhibition": "inconclusive: 8.26% [at 0.0737 µM]"}, {"smiles": "Cc1cc(NC(=O)CCS(=O)(=O)c2nc(-c3ccccc3)cc(C(F)(F)F)n2)no1", "ratio change, negative = inhibition": "inconclusive: -17.8%"}, {"smiles": "Cc1ccc2nc(-c3ccc(NC(=O)CCN4C(=O)c5ccccc5C4=O)cc3)sc2c1", "ratio change, negative = inhibition": "inactive"}, {"smiles": "CCCCc1nc2c(c3c1C[C@H](C)OC3)CN(S(=O)(=O)c1ccc(NC(C)=O)cc1)CC2", "ratio change, negative = inhibition": "inconclusive: -4.49% [at 9.22 µM]"}, {"smiles": "O=C(c1ccc(Cl)cc1)N1CCC(c2nc3ccccc3o2)CC1", "ratio change, negative = inhibition": "inactive"}, {"smiles": "O=S(=O)(c1ccc(Br)cc1)N1CCCN(Cc2cccc(F)c2)CC1", "ratio change, negative = inhibition": "inconclusive: -51.7%"}, {"smiles": "COc1ccc(-c2cn3c(n2)sc2cc(C(=O)Nc4cccc(SC)c4)ccc23)cc1", "ratio change, negative = inhibition": "inconclusive: -5.21% [at 46 µM]"}, {"smiles": "COc1ccc(NC(=O)c2c(NCc3cccs3)sc3c2CCCC3)c(OC)c1", "ratio change, negative = inhibition": "inconclusive: -37.5% [at 46 µM]"}, {"smiles": "CCCSc1nc2cc(C)c(C)cc2n1CC(C)O", "note": "(stereo not drawn)", "ratio change, negative = inhibition": "inconclusive: -4.9% [at 46 µM]"}, {"smiles": "O=C(NCc1ccco1)c1cc([N+](=O)[O-])ccc1Cl", "ratio change, negative = inhibition": "inconclusive: -12% [at 46 µM]"}, {"smiles": "COC(=O)c1sccc1NC(=S)N1CCN(c2cc(C)ccc2C)CC1", "Potency": "inconclusive: 35.5 µM [fluorescent, single point]"}, {"smiles": "COc1cc(NC(=O)COC(=O)/C=C/c2ccc(Cl)cc2Cl)cc(OC)c1", "ratio change, negative = inhibition": "inconclusive: 0.545%"}, {"smiles": "COc1cc(-c2cc3n(C)c(C)c(CCC(=O)NCc4ccccc4)c(=O)n3n2)cc(OC)c1OC", "ratio change, negative = inhibition": "inactive"}, {"smiles": "COc1ccc(CN=C2Nc3ccccc3CS2)cc1", "Potency": "inconclusive: 35.5 µM [fluorescent, single point]"}, {"smiles": "CC(=O)c1c(C)[nH]c(C(=O)CSc2nnc(-c3ccco3)o2)c1C", "ratio change, negative = inhibition": "inconclusive: 54.2% [at 46 µM]"}, {"smiles": "O=C(c1c[nH]c2ccccc2c1=O)N1CCCCCC1", "ratio change, negative = inhibition": "inconclusive: 21.6% [at 46 µM]"}, {"smiles": "COc1ccc(C2OC34CCCCC3C(C#N)(C#N)C2(C#N)C(=N)O4)cc1", "note": "(stereo not drawn)", "ratio change, negative = inhibition": "inactive"}, {"smiles": "O=C(c1ccc(F)cc1)C1CCN(C(=O)NC2CCCCC2)CC1", "ratio change, negative = inhibition": "inconclusive: -22.3%"}, {"smiles": "O=c1c2ccccc2nnn1CSc1nc2sc3c(c2c(=O)n1CC1CCCO1)CCC3", "note": "(stereo not drawn)", "ratio change, negative = inhibition": "inconclusive: 8.69%"}, {"smiles": "Cc1cc(C)c(S(=O)(=O)N2CCCOC2CNC(=O)C(=O)NCCC2=CCCCC2)c(C)c1", "note": "(stereo not drawn)", "ratio change, negative = inhibition": "inconclusive: -1.08%"}, {"smiles": "Cc1ccc(NC(=O)CSc2nc3c(c(=O)[nH]2)CN(Cc2ccc(F)cc2)CC3)cc1C", "ratio change, negative = inhibition": "inconclusive: -8.15%"}, {"smiles": "Cc1cc(=O)[nH]c(SCC(=O)NCCC2=CCCCC2)n1", "Potency": "inconclusive: 0.0562 µM [activator, partial curve, poor fit]"}, {"smiles": "COc1ccc(Br)cc1CNC(=O)c1cc(=O)[nH]c2ccc(S(=O)(=O)N3CCCCC3)cc12", "ratio change, negative = inhibition": "inactive"}, {"smiles": "CN(C)c1ccc(C(CNC(=O)c2cccc(C(F)(F)F)c2)N2CCCC2)cc1", "note": "(stereo not drawn)", "ratio change, negative = inhibition": "inactive"}, {"smiles": "COCC(C)N=C1NN=C(c2cc(C)n(Cc3ccccc3Cl)c2C)CS1", "note": "(stereo not drawn)", "Potency": "inconclusive: 11.2 µM [inhibitor, partial curve, poor fit]"}, {"smiles": "COc1ccc(NC(=O)c2cc(S(=O)(=O)N(Cc3ccccc3)c3ccccc3)ccc2Cl)cn1", "Potency": "inconclusive: 35.5 µM [fluorescent, single point]"}, {"smiles": "CC(C)=CCc1c2c(c(O)c3c(=O)c(O)c(-c4ccccc4)oc13)C=CC(C)(C)O2", "ratio change, negative = inhibition": "inconclusive: -24.2%"}, {"smiles": "CCCC(=O)Nc1cccc(-c2cn3cccnc3n2)c1", "ratio change, negative = inhibition": "inconclusive: -0.995% [at 46 µM]"}, {"smiles": "COc1ccc(NC(=O)C2CCN(C(=O)N3CCOc4ccccc43)CC2)cc1", "ratio change, negative = inhibition": "inconclusive: -10.1% [at 46 µM]"}, {"smiles": "Cc1[nH]cnc1CSCc1ccc(F)cc1", "ratio change, negative = inhibition": "inactive"}, {"smiles": "O=C(Nc1ccccc1)C1(c2ccccc2)CC1(Cl)Cl", "note": "(stereo not drawn)", "ratio change, negative = inhibition": "inconclusive: 4.36%"}, {"smiles": "Cc1cc(C)nc(SCC(=O)c2cc3ccccc3oc2=O)n1", "Potency": "inconclusive: 8.91 µM [falling, partial curve]"}, {"smiles": "O=c1oc2ccccc2cc1-c1csc(NN=C2CCCCC2)n1", "ratio change, negative = inhibition": "inconclusive: 12.9%"}, {"smiles": "COc1ccc(NC(=O)N2CCN(S(=O)(=O)c3ccc4c(ccn4C)c3)CC2)cc1OC", "ratio change, negative = inhibition": "inconclusive: -37.3% [at 46 µM]"}, {"smiles": "CCCn1c(N2CCN(CC(=O)c3c[nH]c4ccccc34)CC2)nc2c1c(=O)[nH]c(=O)n2C", "ratio change, negative = inhibition": "inactive"}, {"smiles": "COCCCNC(=O)CNC(=O)c1cn(-c2ccccc2OC)c(=O)c2ccccc12", "ratio change, negative = inhibition": "inactive: 2.81% [at 9.22 µM]"}, {"smiles": "Fc1ccccc1Cn1nnc2c(NCCc3ccccn3)ncnc21", "ratio change, negative = inhibition": "inactive"}, {"smiles": "CCOC(=O)/C(=N/Nc1ccc(Cl)cc1)S(=O)(=O)c1ccccc1", "Potency": "inconclusive: 35.5 µM [falling, single point]"}, {"smiles": "CCCNS(=O)(=O)c1ccc(OCC(=O)OC)cc1", "ratio change, negative = inhibition": "inactive"}, {"smiles": "CC1CCN(C(=O)CN2c3ccc(C(C)C)cc3-c3ccccc3S2(=O)=O)CC1", "ratio change, negative = inhibition": "inactive"}, {"smiles": "Cc1ccc(Cn2c(/C=C/c3ccco3)nc3ccccc32)cc1", "ratio change, negative = inhibition": "inactive"}, {"smiles": "Cc1ccc(-c2c(C(=O)NCc3ccc(F)cc3)oc(=O)c3ccccc23)cc1", "ratio change, negative = inhibition": "inactive"}, {"smiles": "N#Cc1ccccc1Sc1ccccc1C(=O)OCc1nnc(-c2ccccc2)o1", "ratio change, negative = inhibition": "inactive"}, {"smiles": "NC(=O)COc1ccc(=O)n(-c2ccccc2)n1", "ratio change, negative = inhibition": "inactive"}, {"smiles": "C1=C(c2ccccc2)Nc2ccccc2N=C1c1ccccc1", "Potency": "inconclusive: 35.5 µM [fluorescent, single point]"}, {"smiles": "CN(C)CCN(Cc1ccco1)C(=O)c1cc2c(Cl)nc3ccccc3c2s1", "ratio change, negative = inhibition": "inconclusive: -35.7% [at 46 µM]"}, {"smiles": "CCN(Cc1ccccc1)S(=O)(=O)c1ccc2c(c1)CCCN2C(C)=O", "ratio change, negative = inhibition": "inactive"}, {"smiles": "COc1ccc(N=C(NN)c2ccc3ccccc3n2)cc1", "ratio change, negative = inhibition": "inconclusive: -14.3%"}, {"smiles": "CCN(CC)S(=O)(=O)c1ccc(N/N=C/c2ccc(O)cc2O)nc1", "ratio change, negative = inhibition": "inconclusive: -55.7%"}, {"smiles": "CC(C)=CCN1CCN(Cc2ccc(C)s2)CC1CCO", "note": "(stereo not drawn)", "ratio change, negative = inhibition": "inconclusive: 5.04% [at 46 µM]"}, {"smiles": "Cc1cn2c(-c3cccnc3)nnc2s1", "ratio change, negative = inhibition": "inactive"}, {"smiles": "Cc1cc(C)cc(NC(=O)CSc2nnc(-c3ccccc3Br)o2)c1", "ratio change, negative = inhibition": "inconclusive: -24.4%"}, {"smiles": "Cc1ccc(NC(=O)c2cc(S(=O)(=O)c3ccccc3)ccc2Cl)cc1", "Potency": "inconclusive: 35.5 µM [fluorescent, single point]"}, {"smiles": "O=c1c(-c2cccs2)nc2cnc(N3CCOCC3)nc2n1Cc1cccs1", "ratio change, negative = inhibition": "inconclusive: 39.9%"}, {"smiles": "CC(Sc1nnnn1C1CCCCC1)C(=O)O", "note": "(stereo not drawn)", "ratio change, negative = inhibition": "inconclusive: -10.8% [at 46 µM]"}, {"smiles": "CCOC(=O)C1C(=O)CC(C)(O)C(C(=O)OCC)C1c1ccc(Br)cc1", "note": "(stereo not drawn)", "ratio change, negative = inhibition": "inconclusive: 6.37%"}, {"smiles": "Cc1cc(NC(=S)N(CCCN2CCN(C)CC2)Cc2ccco2)ccc1Cl", "ratio change, negative = inhibition": "inconclusive: -25% [at 46 µM]"}, {"smiles": "COc1ccc(C(=O)NC(c2ccccc2Cl)c2cc(Cl)c3cccnc3c2O)cc1", "note": "(stereo not drawn)", "ratio change, negative = inhibition": "inconclusive: -21.7% [at 46 µM]"}, {"smiles": "S=C(Nc1ccccc1)Nc1nc2ccccc2n1CCOc1ccc(Br)cc1", "Potency": "inconclusive: 35.5 µM [cytotoxic, single point]"}, {"smiles": "COc1cc(CCC(=O)OCC(=O)NCC2CCCCC2)cc(OC)c1OC", "ratio change, negative = inhibition": "inconclusive: 9.18% [at 46 µM]"}, {"smiles": "Cn1c(SCC(=O)NCc2ccco2)nnc1-c1ccccc1", "ratio change, negative = inhibition": "inactive"}, {"smiles": "C[C@H]1[C@@H](O)[C@@H](C)\\C=C/C=C\\C=C/C=C\\C=C/C=C\\C=C/[C@@H](O[C@H]2O[C@@H](C)[C@@H](O)[C@@H](N)[C@@H]2O)C[C@@H]2O[C@](O)(C[C@@H](O)C[C@@H](O)[C@@H](O)CC[C@@H](O)C[C@@H](O)CC(=O)O[C@H]1C)C[C@@H](O)[C@H]2C(=O)O", "note": "(stereo in doubt)", "ratio change, negative = inhibition": "inconclusive: -12.9%"}, {"smiles": "CCCNC(=O)c1cc2n(n1)CCCN(Cc1ccc(C)cc1)C2=O", "ratio change, negative = inhibition": "inconclusive: -0.654% [at 46 µM]"}, {"smiles": "COc1ccc(C(=O)/C=C/c2cccs2)c(OC(=O)c2cccc([N+](=O)[O-])c2)c1", "ratio change, negative = inhibition": "inconclusive: 84.1%"}, {"smiles": "Cc1nc(CC(C)C)cc(C(=O)N2CCCC(CNS(=O)(=O)c3cccs3)C2)n1", "note": "(stereo not drawn)", "ratio change, negative = inhibition": "inconclusive: 6.77% [at 46 µM]"}, {"smiles": "COc1ccc2ccccc2c1C(O)c1nccn1C", "note": "(stereo not drawn)", "ratio change, negative = inhibition": "inconclusive: 4.64%"}, {"smiles": "Cc1ccc(-c2cn3nc(N4CCCC(C(=O)NCc5ccc(F)cc5)C4)sc3n2)cc1", "note": "(stereo not drawn)", "ratio change, negative = inhibition": "inactive"}, {"smiles": "C/C(=N\\NC(=O)c1ccc(CSc2nncn2C)cc1)c1ccc(Cl)cc1", "ratio change, negative = inhibition": "inconclusive: 41.6%"}, {"smiles": "COc1ccc(N2CCN(Cc3nc4c(c(=O)n(C)c(=O)n4C)n3C(C)C)CC2)cc1", "ratio change, negative = inhibition": "inactive"}, {"smiles": "CN(C)CCCn1c(-c2ccc(Cl)cc2)csc1=Nc1ccccc1", "ratio change, negative = inhibition": "inconclusive: -27.4% [at 46 µM]"}, {"smiles": "Cc1ccc2nc(CN3CCN(S(=O)(=O)c4ccc(C(C)C)cc4)CC3)oc2c1", "ratio change, negative = inhibition": "inactive"}, {"smiles": "COC(=O)[C@H]1C(OC)[C@@H](OC(=O)c2cc(OC)c(OC)c(OC)c2)C[C@@H]2CN3CCc4c([nH]c5cc(OC)ccc45)[C@H]3C[C@H]21", "note": "(stereo partly drawn)", "ratio change, negative = inhibition": "inconclusive: 7.1%"}, {"smiles": "CN(C)N=C1c2cc(S(=O)(=O)N3CCOCC3)ccc2-c2ccc(S(=O)(=O)N3CCOCC3)cc21", "ratio change, negative = inhibition": "inactive"}]}]}
